Source: paper PMC4908583

Amino acid sequences for entries named in this document (tags omitted). A change or cut given only in a name is not applied to a line headed by its entry.
UniProt Q9BRK3: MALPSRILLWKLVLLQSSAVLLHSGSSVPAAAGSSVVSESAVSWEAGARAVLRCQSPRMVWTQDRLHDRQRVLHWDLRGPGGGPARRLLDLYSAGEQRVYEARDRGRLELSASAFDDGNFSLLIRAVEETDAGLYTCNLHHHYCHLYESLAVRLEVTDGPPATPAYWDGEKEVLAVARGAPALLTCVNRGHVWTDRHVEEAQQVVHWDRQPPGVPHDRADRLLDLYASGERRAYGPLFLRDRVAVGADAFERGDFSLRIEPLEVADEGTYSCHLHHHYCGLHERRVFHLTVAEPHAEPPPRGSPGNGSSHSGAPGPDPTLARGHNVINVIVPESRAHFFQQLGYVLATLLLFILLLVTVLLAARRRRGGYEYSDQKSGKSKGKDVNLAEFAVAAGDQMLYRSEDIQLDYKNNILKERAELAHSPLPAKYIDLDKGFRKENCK
UniProt Q9UMF0: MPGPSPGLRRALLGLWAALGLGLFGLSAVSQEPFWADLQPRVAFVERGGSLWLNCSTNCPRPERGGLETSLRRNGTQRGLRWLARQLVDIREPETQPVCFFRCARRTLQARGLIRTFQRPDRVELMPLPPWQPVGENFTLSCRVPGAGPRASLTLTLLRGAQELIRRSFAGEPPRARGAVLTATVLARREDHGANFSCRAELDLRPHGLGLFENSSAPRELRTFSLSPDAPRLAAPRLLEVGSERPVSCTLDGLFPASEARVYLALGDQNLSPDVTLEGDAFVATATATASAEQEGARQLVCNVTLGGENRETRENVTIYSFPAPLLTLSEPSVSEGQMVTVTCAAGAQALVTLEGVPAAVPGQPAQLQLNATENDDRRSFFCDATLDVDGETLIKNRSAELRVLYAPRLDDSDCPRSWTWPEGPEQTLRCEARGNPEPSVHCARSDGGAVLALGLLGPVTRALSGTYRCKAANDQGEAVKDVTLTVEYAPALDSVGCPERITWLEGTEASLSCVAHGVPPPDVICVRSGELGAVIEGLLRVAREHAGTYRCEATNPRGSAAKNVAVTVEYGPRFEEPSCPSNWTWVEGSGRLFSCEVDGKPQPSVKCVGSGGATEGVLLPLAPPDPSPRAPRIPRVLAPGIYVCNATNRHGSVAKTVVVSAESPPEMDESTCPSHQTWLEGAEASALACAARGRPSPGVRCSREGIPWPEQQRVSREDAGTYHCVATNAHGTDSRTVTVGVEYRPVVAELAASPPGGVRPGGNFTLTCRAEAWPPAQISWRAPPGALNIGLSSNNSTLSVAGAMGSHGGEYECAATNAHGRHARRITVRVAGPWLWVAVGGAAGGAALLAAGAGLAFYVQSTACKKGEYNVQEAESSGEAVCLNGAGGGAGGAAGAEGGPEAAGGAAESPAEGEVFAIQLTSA

Molecular target: T1, FPRL1 (formyl peptide receptor-like 1) inhibitory protein (FLIPr) (S. aureus) (UniProt Q2FZC0)
T1 sequence: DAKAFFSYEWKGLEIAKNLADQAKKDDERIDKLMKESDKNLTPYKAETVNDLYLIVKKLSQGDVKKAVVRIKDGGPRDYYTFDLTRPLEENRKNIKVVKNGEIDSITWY
Test: peptide or protein array; both purified

“matrix remodelling associated protein 8 (MXRA8) (from UniProt Q9BRK3)” was tested, and the binding was “binds”.
For “intercellular adhesion molecule 5 (ICAM5) (from UniProt Q9UMF0)”, the binding was “binds”.

Results are given in words; binding and its absence hold for the method and conditions named. Binding calls can cover weak binding; strength is not graded here.
